We go through 35 targets from the supplement of paper PMC12067093, “Discovery and optimisation of a covalent ligand for TRIM25 and its application to targeted protein ubiquitination” (Chemical Science, 2025).

Protein sequences, listed by entry. Tags and fused reporters are not part of them. Lines headed by an entry give the natural chain unless they say otherwise; changes in a name come on top.
UniProt P23368: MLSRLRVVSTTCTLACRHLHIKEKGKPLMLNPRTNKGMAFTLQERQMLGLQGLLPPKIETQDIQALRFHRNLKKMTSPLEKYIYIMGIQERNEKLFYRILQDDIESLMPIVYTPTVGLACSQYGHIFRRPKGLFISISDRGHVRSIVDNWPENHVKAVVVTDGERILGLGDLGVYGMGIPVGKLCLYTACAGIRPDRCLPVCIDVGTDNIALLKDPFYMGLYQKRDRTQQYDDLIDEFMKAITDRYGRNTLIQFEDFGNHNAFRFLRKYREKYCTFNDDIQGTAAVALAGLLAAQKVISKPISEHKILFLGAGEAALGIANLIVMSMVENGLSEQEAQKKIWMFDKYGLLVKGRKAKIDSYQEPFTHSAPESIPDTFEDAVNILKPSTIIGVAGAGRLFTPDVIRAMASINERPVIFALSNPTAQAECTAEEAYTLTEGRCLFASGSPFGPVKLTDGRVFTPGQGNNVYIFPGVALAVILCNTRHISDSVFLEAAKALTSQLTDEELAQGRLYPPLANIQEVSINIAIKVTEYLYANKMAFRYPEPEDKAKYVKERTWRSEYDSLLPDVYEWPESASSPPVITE
UniProt Q9HCC0: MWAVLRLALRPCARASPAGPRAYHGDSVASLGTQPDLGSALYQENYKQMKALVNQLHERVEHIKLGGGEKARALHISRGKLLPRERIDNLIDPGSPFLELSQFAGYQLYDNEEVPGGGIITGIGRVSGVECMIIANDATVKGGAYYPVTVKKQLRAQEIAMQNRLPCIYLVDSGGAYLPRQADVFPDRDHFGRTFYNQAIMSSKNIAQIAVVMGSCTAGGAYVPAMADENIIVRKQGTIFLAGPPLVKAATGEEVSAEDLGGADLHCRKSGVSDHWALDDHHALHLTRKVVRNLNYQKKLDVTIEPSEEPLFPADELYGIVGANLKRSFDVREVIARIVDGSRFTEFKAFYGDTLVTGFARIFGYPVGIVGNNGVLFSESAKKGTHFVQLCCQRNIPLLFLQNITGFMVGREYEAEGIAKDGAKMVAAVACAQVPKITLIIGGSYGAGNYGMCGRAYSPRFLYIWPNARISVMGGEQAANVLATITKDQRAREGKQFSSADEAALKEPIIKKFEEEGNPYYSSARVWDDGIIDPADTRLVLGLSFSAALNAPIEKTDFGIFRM
UniProt P25205: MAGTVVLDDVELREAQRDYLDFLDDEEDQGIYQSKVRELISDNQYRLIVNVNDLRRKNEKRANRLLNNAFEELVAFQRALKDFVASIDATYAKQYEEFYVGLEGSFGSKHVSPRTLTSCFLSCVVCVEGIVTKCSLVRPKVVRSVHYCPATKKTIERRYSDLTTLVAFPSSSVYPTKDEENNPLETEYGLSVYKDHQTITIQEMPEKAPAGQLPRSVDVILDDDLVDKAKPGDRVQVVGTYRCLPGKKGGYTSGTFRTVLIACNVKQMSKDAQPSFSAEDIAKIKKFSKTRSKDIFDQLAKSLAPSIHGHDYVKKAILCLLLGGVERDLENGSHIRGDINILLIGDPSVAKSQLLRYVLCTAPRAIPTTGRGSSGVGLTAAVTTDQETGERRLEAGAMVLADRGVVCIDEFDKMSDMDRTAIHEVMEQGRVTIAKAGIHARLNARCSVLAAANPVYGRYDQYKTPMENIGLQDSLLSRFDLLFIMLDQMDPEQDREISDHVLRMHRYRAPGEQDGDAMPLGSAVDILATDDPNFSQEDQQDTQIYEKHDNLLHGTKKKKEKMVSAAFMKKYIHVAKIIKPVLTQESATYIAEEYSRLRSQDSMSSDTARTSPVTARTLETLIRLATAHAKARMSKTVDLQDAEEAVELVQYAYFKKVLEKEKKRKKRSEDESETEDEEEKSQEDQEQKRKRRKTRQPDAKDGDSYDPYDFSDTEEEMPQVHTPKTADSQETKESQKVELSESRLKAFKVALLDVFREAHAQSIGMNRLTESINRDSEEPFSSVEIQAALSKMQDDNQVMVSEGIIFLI
UniProt P50579: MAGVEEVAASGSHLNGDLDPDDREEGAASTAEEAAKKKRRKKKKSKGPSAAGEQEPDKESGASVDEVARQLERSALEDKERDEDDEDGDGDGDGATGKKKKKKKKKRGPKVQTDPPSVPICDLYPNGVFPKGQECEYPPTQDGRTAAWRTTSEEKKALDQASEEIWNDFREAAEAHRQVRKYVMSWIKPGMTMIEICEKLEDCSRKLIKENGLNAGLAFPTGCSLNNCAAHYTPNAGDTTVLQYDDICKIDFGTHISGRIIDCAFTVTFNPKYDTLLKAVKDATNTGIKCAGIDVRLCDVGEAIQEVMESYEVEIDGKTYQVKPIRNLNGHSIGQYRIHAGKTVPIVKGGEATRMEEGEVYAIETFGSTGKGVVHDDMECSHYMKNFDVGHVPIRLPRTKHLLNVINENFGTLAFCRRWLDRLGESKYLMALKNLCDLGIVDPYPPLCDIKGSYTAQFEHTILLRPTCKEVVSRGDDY
UniProt Q9Y316: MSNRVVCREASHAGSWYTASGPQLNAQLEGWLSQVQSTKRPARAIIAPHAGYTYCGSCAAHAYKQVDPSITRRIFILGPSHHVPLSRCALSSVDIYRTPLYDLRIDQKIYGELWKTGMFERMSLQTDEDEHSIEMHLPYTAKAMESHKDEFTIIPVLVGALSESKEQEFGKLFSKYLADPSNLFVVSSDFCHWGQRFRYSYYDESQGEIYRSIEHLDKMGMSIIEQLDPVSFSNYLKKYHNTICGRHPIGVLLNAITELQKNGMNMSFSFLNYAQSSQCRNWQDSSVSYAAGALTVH
UniProt Q6P2C8: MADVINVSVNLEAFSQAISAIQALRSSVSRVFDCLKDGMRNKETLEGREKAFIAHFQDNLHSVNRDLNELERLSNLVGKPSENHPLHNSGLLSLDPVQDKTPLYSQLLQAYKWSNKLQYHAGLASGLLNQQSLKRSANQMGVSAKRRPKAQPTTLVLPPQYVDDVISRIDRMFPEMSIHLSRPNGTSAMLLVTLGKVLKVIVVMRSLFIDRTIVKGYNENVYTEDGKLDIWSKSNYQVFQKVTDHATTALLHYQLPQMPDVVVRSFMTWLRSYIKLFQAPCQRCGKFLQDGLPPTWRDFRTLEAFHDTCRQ
UniProt P33991: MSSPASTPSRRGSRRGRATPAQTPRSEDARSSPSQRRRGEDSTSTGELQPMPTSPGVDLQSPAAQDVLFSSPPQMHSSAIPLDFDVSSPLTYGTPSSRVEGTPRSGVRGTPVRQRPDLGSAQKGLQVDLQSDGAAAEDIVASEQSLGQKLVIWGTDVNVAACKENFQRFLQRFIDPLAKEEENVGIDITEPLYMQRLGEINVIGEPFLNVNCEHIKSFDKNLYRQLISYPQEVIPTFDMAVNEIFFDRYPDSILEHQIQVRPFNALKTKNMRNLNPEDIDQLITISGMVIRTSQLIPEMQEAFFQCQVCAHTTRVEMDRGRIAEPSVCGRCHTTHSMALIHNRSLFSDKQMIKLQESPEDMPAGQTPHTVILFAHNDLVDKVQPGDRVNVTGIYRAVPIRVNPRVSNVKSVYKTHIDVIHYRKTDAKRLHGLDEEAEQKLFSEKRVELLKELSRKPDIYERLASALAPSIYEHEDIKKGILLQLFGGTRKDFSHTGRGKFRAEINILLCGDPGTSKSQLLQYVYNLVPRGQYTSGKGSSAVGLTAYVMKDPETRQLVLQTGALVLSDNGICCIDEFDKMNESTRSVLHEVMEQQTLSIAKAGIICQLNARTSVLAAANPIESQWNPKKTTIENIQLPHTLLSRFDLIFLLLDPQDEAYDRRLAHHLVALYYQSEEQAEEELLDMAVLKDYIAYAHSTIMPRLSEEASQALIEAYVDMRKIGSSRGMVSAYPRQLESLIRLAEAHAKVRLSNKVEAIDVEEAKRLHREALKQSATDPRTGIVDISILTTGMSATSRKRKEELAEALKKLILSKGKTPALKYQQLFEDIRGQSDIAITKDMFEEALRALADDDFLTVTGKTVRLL
UniProt O43513: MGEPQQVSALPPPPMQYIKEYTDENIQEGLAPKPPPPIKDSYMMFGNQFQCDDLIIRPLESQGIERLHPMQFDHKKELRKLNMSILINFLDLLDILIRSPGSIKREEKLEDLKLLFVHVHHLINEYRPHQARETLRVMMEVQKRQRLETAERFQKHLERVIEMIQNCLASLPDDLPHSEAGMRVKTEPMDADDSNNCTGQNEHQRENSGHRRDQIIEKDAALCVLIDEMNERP
UniProt Q9HCE5: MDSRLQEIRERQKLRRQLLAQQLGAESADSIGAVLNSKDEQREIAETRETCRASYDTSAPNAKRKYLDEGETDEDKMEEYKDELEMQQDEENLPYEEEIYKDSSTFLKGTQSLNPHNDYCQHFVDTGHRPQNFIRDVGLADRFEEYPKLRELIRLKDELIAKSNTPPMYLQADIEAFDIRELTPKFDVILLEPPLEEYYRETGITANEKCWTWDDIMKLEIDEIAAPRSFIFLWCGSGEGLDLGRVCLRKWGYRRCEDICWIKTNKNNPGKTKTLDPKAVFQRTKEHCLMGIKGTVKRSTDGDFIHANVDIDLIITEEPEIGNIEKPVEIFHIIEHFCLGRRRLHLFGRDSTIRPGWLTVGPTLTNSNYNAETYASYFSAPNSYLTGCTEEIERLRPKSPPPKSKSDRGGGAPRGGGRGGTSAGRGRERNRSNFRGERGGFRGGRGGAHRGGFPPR
UniProt O60318: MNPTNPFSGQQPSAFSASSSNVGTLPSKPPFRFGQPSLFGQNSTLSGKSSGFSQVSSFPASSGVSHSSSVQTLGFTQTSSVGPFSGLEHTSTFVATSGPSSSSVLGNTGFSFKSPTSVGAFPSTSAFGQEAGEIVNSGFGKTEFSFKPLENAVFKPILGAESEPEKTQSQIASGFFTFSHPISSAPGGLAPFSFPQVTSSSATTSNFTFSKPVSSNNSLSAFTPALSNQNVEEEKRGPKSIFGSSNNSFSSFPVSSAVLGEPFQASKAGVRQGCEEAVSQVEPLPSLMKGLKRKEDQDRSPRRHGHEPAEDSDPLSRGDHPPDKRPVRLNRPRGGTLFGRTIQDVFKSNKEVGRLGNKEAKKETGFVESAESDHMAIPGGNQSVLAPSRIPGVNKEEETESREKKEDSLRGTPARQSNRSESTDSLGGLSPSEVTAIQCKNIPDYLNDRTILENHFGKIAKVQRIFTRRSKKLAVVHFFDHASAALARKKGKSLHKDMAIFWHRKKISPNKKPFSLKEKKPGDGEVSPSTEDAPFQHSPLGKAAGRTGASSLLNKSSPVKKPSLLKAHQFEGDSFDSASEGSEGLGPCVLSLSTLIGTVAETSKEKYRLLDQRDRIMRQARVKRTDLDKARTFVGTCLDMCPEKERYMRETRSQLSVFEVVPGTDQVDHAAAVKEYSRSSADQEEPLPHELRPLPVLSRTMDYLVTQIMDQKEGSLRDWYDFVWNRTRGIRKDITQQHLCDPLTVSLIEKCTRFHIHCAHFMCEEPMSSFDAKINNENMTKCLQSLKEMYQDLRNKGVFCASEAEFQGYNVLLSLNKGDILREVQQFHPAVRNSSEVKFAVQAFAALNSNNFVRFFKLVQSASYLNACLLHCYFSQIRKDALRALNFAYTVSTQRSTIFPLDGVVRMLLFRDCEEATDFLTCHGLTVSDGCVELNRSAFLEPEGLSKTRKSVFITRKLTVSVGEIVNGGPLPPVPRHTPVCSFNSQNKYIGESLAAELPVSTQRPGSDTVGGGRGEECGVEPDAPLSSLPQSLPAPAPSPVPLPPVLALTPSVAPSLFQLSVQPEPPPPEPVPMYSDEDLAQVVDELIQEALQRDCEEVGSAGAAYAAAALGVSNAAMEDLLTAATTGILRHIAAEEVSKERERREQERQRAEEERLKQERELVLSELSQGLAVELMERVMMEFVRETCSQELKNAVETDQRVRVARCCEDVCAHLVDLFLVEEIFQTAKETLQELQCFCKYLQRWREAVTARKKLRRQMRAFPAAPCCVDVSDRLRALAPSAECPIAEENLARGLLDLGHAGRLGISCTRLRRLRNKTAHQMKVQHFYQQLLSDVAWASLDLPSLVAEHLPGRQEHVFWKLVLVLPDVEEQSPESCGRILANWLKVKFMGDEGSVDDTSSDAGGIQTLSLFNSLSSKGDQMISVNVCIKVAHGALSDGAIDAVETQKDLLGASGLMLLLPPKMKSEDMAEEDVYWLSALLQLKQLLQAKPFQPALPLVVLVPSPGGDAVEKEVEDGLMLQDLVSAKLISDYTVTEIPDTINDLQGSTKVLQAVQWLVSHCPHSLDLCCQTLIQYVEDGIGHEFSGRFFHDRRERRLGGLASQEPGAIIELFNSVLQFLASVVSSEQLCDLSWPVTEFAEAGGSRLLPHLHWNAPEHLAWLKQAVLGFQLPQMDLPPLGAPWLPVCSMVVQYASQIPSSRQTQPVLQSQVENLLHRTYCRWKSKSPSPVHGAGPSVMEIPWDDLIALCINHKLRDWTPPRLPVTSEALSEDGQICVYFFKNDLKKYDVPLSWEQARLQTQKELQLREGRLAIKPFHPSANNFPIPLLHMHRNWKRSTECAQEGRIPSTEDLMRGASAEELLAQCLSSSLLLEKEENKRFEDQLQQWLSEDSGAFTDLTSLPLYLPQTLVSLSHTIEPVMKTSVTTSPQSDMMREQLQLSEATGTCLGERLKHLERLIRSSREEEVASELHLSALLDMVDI

This is one part of the list.

Compound in the test: CC1Cc2ccccc2N1C(=O)C1CCCN(C1)C(=O)CCl (mixture of isomers) [TRIM25 ligand 11 (diastereomer mixture)]
Description: probe-labelled cysteine peptide fold change vs DMSO (competition) (log2 fold change); higher = less target engagement (more negative = stronger competition). As to conditions: THP-1, incubation time: 4 h.
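Note: competitive chemoproteomic profiling in live THP-1 cells with an iodoacetamide desthiobiotin (IA-DTB) probe, comparing probe-labelled peptide intensities in compound-treated cells against DMSO-treated controls.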

For the target “ME2_P23368_441_CLFASGSPFGPVK (UniProt P23368)”, the “probe-labelled cysteine peptide fold change” value was -0.014 (10 µM) and -0.0719 (50 µM).
On the same counts, the results for “MCCC2_Q9HCC0_167_LPCIYLVDSGGAYLPR (UniProt Q9HCC0)” are 0.197 and 0.243.
On to “MCM3_P25205_119_TLTSCFLSCVVCVEGIVTK (UniProt P25205)”, for which the “probe-labelled cysteine peptide fold change” value is, setting by setting: (10 µM) 0.214; (50 µM) -0.00361.
The like results for “MCMBP_Q9BTE3_602_CLSLSAGQTTLSR (UniProt Q9BTE3)” were, in that order, 0.0958 and -0.0789.
On the same counts, the results for “METTL2B_Q6P1Q9_233_CFAFVHDLCDEEK (UniProt Q6P1Q9)” are 0.0278 and 0.14.
Regarding “MCCC2_Q9HCC0_131_VSGVECMIIANDATVK (UniProt Q9HCC0)”, the “probe-labelled cysteine peptide fold change” value (10 µM) worked out at 0.118 and the “probe-labelled cysteine peptide fold change” value (50 µM) turned out to be 0.0756.
In the case of “METAP2_P50579_448_NLCDLGIVDPYPPLCDIK (UniProt P50579)”, the “probe-labelled cysteine peptide fold change” value was 0.172 (10 µM) and 0.214 (50 µM).
On the same counts, the results for MDN1_Q9NU22_95_LCVSMSK (UniProt Q9NU22) are -0.0424 and -0.0583.
Turning to “MDN1_Q9NU22_1105_TSLIQWLAAATGNHCVR (UniProt Q9NU22)”, the “probe-labelled cysteine peptide fold change” value was 0.168 (10 µM) and 0.0543 (50 µM).
Turning to “MCRS1_Q96EZ8_84_CSGSEPSSSEK (UniProt Q96EZ8)”, the “probe-labelled cysteine peptide fold change” value was -0.0508 (10 µM) and -0.0499 (50 µM).
The like results for “MDH1_P40925_154_ENFSCLTR (UniProt P40925)” were, in that order, -0.0906 and -0.113.
As for “MED6_O75586_137_VLTAVHGIQSAFDEAMSYCR (UniProt O75586)”, the “probe-labelled cysteine peptide fold change” value (10 µM) was -0.491 and the “probe-labelled cysteine peptide fold change” value (50 µM) amounted to 0.141.
On to “MCL1_Q07820_16_NAVIGLNLYCGGAGLGAGSGGATRPGGR (UniProt Q07820)”, for which the “probe-labelled cysteine peptide fold change” value runs as follows: (10 µM) 0.233; (50 µM) 0.0883.
Consider “MEMO1_Q9Y316_55+58_AIIAPHAGYTYCGSCAAHAYK (UniProt Q9Y316)”, for which the “probe-labelled cysteine peptide fold change” value runs as follows: (10 µM) 0.0483; (50 µM) -0.0879.
On to “MED27_Q6P2C8_309_TLEAFHDTCR (UniProt Q6P2C8)”, for which the “probe-labelled cysteine peptide fold change” value was 0.248 (10 µM) and -0.00346 (50 µM).
As to “MCM4_P33991_572_QLVLQTGALVLSDNGICCIDEFDK (UniProt P33991)”, the “probe-labelled cysteine peptide fold change” value by setting is: (10 µM) 0.0647; (50 µM) 0.0566.
“MED7_O43513_223_DAALCVLIDEMNERP (UniProt O43513)”: the “probe-labelled cysteine peptide fold change” value was 0.0565 (10 µM) and -0.131 (50 µM).
On the same counts, the results for “METTL14_Q9HCE5_256+260_CEDICWIK (UniProt Q9HCE5)” are -0.0382 and -0.0762.
The like results for “METAP2_P50579_135_GQECEYPPTQDGR (UniProt P50579)” were, in that order, -0.00959 and -0.355.
For the target “METAP1_P53582_368_SAQFEHTLLVTDTGCEILTRR (UniProt P53582)”, the “probe-labelled cysteine peptide fold change” value was -0.119 (10 µM) and -0.0487 (50 µM).
The like results for “METAP1_P53582_174_PGVTTEEIDHAVHLACIAR (UniProt P53582)” were, in that order, 0.064 and 0.133.
Take “MDN1_Q9NU22_2158_CLGEGGK (UniProt Q9NU22)”: the “probe-labelled cysteine peptide fold change” value amounted to 0.105 (10 µM) and 0.0197 (50 µM).
The like results for “MDN1_Q9NU22_979_FAASNPCGNIQR (UniProt Q9NU22)” were, in that order, 0.105 and 0.078.
Take “MCM6_Q14566_158_THPVHPELVSGTFLCLDCQTVIRDVEQQFK (UniProt Q14566)”: the “probe-labelled cysteine peptide fold change” value runs as follows: (10 µM) -0.241; (50 µM) -0.0415.
For “MCM3_P25205_119+123+126_TLTSCFLSCVVCVEGIVTK (UniProt P25205)”, the “probe-labelled cysteine peptide fold change” value was -0.129 (10 µM) and -0.473 (50 µM).
On the same counts, the results for “MCM4_P33991_306+309_TSQLIPEMQEAFFQCQVCAHTTR (UniProt P33991)” are 0.0632 and 0.234.
The like results for “MED1_Q15648_489_GLSDALICTDDFIAK (UniProt Q15648)” were, in that order, -0.0974 and -0.079.
As for “METAP1_P53582_368_SAQFEHTLLVTDTGCEILTR (UniProt P53582)”, the “probe-labelled cysteine peptide fold change” value runs as follows: (10 µM) 0.0332; (50 µM) -0.0153.
On the same counts, the results for “MCM6_Q14566_351_NLYHNLCTSLFPTIHGNDEVK (UniProt Q14566)” are 0.107 and 0.0102.
“MCM3AP_O60318_740_DITQQHLCDPLTVSLIEK (UniProt O60318)”: the “probe-labelled cysteine peptide fold change” value was 0.0793 (10 µM) and 0.0427 (50 µM).
“METAP1_P53582_255_LVQTTYECLMQAIDAVKPGVR (UniProt P53582)”: the “probe-labelled cysteine peptide fold change” value is, setting by setting: (10 µM) -0.0413; (50 µM) -0.0427.
For “MED24_O75448_546_ILNPDHPCFRPDSTKVESLVALLNNSSEMK (UniProt O75448)”, the “probe-labelled cysteine peptide fold change” value reads like this: (10 µM) -0.226; (50 µM) -0.154.
“MEFV_O15553_773_NTAPLTICPVGGQGPD (UniProt O15553)”: the “probe-labelled cysteine peptide fold change” value was -0.315 (10 µM) and -0.444 (50 µM).
With “METTL13_Q8N6R0_652_RIEGEVNEILFCQLHPEQK (UniProt Q8N6R0)”, the “probe-labelled cysteine peptide fold change” value (10 µM) is 0.0307 and the “probe-labelled cysteine peptide fold change” value (50 µM) was 0.221.
As to “METTL3_Q86U44_483_EHCLVGVK (UniProt Q86U44)”, the “probe-labelled cysteine peptide fold change” value stood at 0.0167 (10 µM) and 0.012 (50 µM).
